Measured values: paper PMC4836274
No constants are given. Whether binding was seen depends on the method and setting. For some of these results: In cells and extracts the contact can be indirect. Some binding calls cover weakened binding; strength is not graded here. For some of these results: Sequences can lack the tags named with a protein.

The chains behind the UniProt entries cited, without tags or fusion partners. Where a name states a change or a piece, a line headed by the entry shows the natural chain unless it says otherwise. Residues count along the entry.
UniProt Q92673: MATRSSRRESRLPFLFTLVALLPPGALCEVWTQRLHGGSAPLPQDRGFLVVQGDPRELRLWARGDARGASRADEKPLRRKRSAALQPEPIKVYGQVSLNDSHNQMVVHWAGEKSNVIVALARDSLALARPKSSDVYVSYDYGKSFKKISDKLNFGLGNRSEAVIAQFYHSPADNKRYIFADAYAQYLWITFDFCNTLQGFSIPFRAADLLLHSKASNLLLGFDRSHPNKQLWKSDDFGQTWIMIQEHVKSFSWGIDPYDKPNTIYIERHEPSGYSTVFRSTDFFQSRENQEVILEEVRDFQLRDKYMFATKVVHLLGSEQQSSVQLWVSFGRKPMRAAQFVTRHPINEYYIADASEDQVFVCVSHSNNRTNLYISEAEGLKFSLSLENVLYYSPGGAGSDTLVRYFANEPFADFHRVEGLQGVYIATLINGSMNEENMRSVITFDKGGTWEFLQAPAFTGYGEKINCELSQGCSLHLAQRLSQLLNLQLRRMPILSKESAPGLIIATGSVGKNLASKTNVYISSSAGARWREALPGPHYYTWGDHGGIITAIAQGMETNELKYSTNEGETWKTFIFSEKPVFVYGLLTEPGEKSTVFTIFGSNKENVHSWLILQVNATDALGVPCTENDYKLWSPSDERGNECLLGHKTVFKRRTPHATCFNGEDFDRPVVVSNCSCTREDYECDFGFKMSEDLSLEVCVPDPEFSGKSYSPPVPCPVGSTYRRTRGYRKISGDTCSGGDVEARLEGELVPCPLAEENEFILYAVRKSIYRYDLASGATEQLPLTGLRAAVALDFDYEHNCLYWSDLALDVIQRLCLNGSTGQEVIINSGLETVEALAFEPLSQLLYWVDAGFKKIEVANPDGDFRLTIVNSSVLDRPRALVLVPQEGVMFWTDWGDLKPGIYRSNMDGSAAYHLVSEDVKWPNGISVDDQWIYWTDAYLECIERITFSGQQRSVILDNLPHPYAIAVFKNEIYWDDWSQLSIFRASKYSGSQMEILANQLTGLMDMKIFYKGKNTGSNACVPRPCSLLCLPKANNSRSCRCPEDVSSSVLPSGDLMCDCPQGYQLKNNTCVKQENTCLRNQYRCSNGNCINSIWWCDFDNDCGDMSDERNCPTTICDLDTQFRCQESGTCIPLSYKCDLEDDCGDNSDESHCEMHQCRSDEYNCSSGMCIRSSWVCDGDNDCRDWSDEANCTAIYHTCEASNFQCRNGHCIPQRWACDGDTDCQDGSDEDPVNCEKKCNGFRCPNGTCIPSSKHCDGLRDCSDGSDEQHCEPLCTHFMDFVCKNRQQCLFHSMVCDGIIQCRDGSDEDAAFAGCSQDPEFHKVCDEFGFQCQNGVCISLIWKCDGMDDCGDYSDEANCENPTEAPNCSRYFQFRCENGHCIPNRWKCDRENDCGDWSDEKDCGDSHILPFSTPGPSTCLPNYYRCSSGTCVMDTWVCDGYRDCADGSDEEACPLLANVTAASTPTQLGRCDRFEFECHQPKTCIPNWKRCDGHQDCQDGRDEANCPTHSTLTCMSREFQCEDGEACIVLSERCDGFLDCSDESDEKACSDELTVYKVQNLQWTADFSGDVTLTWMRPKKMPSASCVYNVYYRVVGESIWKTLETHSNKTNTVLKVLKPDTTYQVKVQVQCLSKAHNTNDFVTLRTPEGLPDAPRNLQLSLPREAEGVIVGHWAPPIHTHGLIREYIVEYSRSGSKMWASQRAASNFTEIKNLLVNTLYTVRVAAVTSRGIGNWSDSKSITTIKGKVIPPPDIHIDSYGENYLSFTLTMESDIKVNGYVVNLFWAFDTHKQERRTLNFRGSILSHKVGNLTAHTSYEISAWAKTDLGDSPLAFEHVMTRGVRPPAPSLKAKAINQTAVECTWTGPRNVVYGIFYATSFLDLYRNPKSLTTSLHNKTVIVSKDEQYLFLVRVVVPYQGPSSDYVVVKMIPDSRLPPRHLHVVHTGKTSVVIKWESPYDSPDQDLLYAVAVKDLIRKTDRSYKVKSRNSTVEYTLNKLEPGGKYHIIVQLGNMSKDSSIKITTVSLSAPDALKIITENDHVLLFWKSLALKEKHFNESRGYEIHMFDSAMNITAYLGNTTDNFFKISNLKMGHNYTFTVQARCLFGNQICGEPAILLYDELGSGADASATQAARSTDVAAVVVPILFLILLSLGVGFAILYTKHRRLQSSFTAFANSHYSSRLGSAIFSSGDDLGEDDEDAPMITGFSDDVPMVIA
full-length sorLA in transfected HEK293 cells: residues 82-2214 of Q92673
soluble sorLA (entire luminal part of sorLA): residues 82-2137 of Q92673

B1: cardiotrophin-like cytokine:cytokine-like factor-1 heterodimer (complex, UniProt Q9UBD9 28-225; O75462 38-422)
chain 1: LNRTGDPGPGPSIQKTYDLTRYLEHQLRSLAGTYLNYLGPPFNEPDFNPPRLGAETLPRATVDLEVWRSLNDKLRLTQNYEAYSHLLCYLRGLNRQAATAELRRSLAHFCTSLQGLLGSIAGVMAALGYPLPQPLPGTEPTWTPGPAHSDFLQKMDDFWLLKELQTWLWRSAKDFNRLKKKMQPPAAAVTLHLGAHGF
chain 2: AHTAVISPQDPTLLIGSSLLATCSVHGDPPGATAEGLYWTLNGRRLPPELSRVLNASTLALALANLNGSRQRSGDNLVCHARDGSILAGSCLYVGLPPEKPVNISCWSKNMKDLTCRWTPGAHGETFLHTNYSLKYKLRWYGQDNTCEEYHTVGPHSCHIPKDLALFTPYEIWVEATNRLGSARSDVLTLDILDVVTTDPPPDVHVSRVGGLEDQLSVRWVSPPALKDFLFQAKYQIRYRVEDSVDWKVVDDVSNQTSCRLAGLKPGTVYFVQVRCNPFGIYGSKKAGIWSEWSHPTAASTPRSERPGPGGGACEPRGGEPSSGPVRRELKQFLGWLKKHAYCSNLSFRLYDQWRAWMQKSHKTRNQDEGILPSGRRGTARGPAR
B2: CLF-1–His (His-tagged cytokine-like factor-1) (protein, UniProt O75462 38-422)
chain: B1 chain 2
B3: CNTFRα-Myc (receptor, UniProt P26992 23-342)
chain: QRHSPQEAPHVQYERLGSDVTLPCGTANWDAAVTWRVNGTDLAPDLLNGSQLVLHGLELGHSGLYACFHRDSWHLRHQVLLHVGLPPREPVLSCRSNTYPKGFYCSWHLPTPTYIPNTFNVTVLHGSKIMVCEKDPALKNRCHIRYMHLFSTIKYKVSISVSNALGHNATAITFDEFTIVKPDPPENVVARPVPSNPRRLEVTWQTPSTWPDPESFPLKFFLRYRPLILDQWQHVELSDGTAHTITDAYAGKEYIIQVAAKDNEIGTWSDWSVAAHATPWTEEPRHLTTEAQAAETTTSTTSSLAPPPTTKICDPGELGS
B4: ciliary neurotrophic factor (ligand, UniProt P26441 1-200)
chain: MAFTEHSPLTPHRRDLCSRSIWLARKIRSDLTALTESYVKHQGLNKNINLDSADGMPVASTDQWSELTEAERLQENLQAYRTFHVLLARLLEDQQVHFTPTEGDFHQAIHTLLLQVAAFAYQIEELMILLEYKIPRNEADGMPINVGDGGLFEKKLWGLKVLQELSQWTVRSIHDLRFISSHQTGIPARGSHYIANNKKM
B5: cardiotrophin-like cytokine (ligand, UniProt Q9UBD9 28-225)
chain: B1 chain 1

Key:
[1] = target: soluble sorLA (entire luminal part of sorLA) (human) (UniProt Q92673); test: SPR; inhibition by RAP of ligand binding to immobilised sorLA; data not shown; both purified
[2] = target: soluble sorLA (entire luminal part of sorLA) (human) (UniProt Q92673); test: SPR; immobilised sorLA preincubated with buffer or with 5 μM inhibitor (sorLA propeptide or RAP) before the ligand was added; both purified
[3] = target: full-length sorLA in transfected HEK293 cells (human) (UniProt Q92673); test: cross-linking + co-IP; HEK293 double transfectants cross-linked with DSP, lysed in 1% Triton X-100, precipitated with anti-sorLA or anti-Myc, SDS-PAGE with and without DTT, immunoblot
[4] = target: soluble sorLA (entire luminal part of sorLA) (human) (UniProt Q92673); test: SPR; Biacore 3000, CM5 chip; soluble sorLA (entire luminal part) immobilised at 66 to 86 fmol/mm^2; 25°C; 10 mM HEPES, 150 mM NaCl, 1.5 mM CaCl2, 1 mM EGTA, 0.005% Tween 20, pH 7.4; Langmuir 1:1 model, global fitting; both purified

Row | Binder | binding [1] | binding [2] | binding [3] | binding [4]
1 | B1 | binds | binds | – | –
2 | B2 | binds | binds | – | –
3 | B3 | – | – | binds | –
4 | B4 | – | – | – | no binding
5 | B5 | – | – | – | no binding (tested: 250 nM)
